From US12178917B2, “Beta-lactamase formulations and uses thereof” (Theriva Biologics, Inc., priority 2014, dated 2024)
At least one structure is not confirmed: it was looked up by name or label, or the drawing left a doubt.

Tested on: intestinal microbiome
Assay: P3A-mediated microbiome protection in humanized pigs, 16S rRNA sequencing of fecal DNA
Format: in vivo, gnotobiotic pigs populated with human adult fecal microflora
Details: feces collected on Day 14

CCC[C@@H]1C[C@@H](C(=O)N[C@@H]([C@H]2O[C@H](SC)[C@H](O)[C@@H](O)[C@H]2O)[C@H](C)Cl)N(C)C1 [clindamycin]
Firmicutes in the microbiome: absent | phylum-level taxonomic classification of bacteria in fecal DNA (antibiotics IP 50 mg/kg 4 days, P3A 75 mg/dose orally 4 times a day 7 days): dysbiosis
